# Test results: PubChem BioAssay AID1487 (National Center for Advancing Translational Sciences (NCATS), 2009)
# The other results are listed elsewhere or left out. Further columns of the screen follow, without active or inactive calls. The list favours compounds with an active or inconclusive main result. Potencies come from curve fits of mixed quality, noted in brackets.
# Assay: qHTS Assay for Modulators of Lamin A Splicing
# Conditions: HeLa LMNA splicing GFP/RFP minigene ratio, 48 h
# Summary of the method: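 S3 HeLa stable clones carrying a lamin A-EGFP splicing minigene plus DsRed2 were seeded at 600 cells/well in Opti-MEM with 2% FBS, pin-dosed and incubated 48 h at 37°C. Acumen cytometry (488 nm) gave the GFP/RFP total-intensity ratio.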
# [1] = measured here: GFP splicing reporter channel
# [2] = measured here: RFP viability control channel
structure (smiles),measurement,setting,value
Cc1cccc(C(=O)Nc2ccc3nc(SCC(=O)N4CCCC4)sc3c2)c1,AC50,[1],"5.62 µM [falling, partial curve, poor fit]"
same,AC50,[2],"1.58 µM [falling, full curve, poor fit]"
COc1ccccc1-c1nnc(NC(=O)c2ccc(S(=O)(=O)N(C)Cc3ccccc3)cc2)o1,AC50,[2],"7.08 µM [rising, partial curve]"
CCOC(=O)c1[nH]c(C)c(CCC(=O)N2CCN(c3cc(C)ccc3C)CC2)c1C,AC50,[1],"4.47 µM [rising, partial curve, poor fit]"
same,AC50,[2],"1.41 µM [rising, full curve]"
Clc1cccc(COn2c(-c3ccc(Cl)cc3Cl)nc3ncccc32)c1,AC50,[2],"14.1 µM [rising, single point]"
O=C(Cc1ccc(F)cc1)Nc1nnc(SCC(=O)N2CCCCC2)s1,AC50,[1],"44.7 µM [rising, partial curve, poor fit]"
CC(Sc1nnnn1-c1ccc(Cl)cc1)C(=O)NCC(=O)Nc1ccc(F)c(F)c1F (centres undefined),AC50,[1],"31.6 µM [rising, single point]"
same,AC50,[2],"35.5 µM [rising, single point]"
COc1ccc(-c2cc(-c3cccs3)nc3sc(C#N)c(N)c23)cc1,AC50,[1],"1.41 µM [rising, full curve, poor fit]"
same,AC50,[2],"1.58 µM [rising, full curve, poor fit]"
COc1n[nH]c(C(=O)Nc2nc3ccccc3s2)c1[N+](=O)[O-],AC50,[1],"6.31 µM [falling, partial curve]"
same,AC50,[2],"6.31 µM [falling, partial curve, poor fit]"
Cc1cccc(C(=O)O/N=C/c2c(N3CCOCC3)n(C)c3ccccc23)c1,AC50,[1],"7.94 µM [falling, partial curve]"
same,AC50,[2],"7.94 µM [falling, partial curve]"
CCN(C(=O)c1ccc2c(Cl)c3c(nc2c1)CCC3)c1cccc(C)c1,AC50,[1],"11.2 µM [rising, partial curve]"
same,AC50,[2],"15.8 µM [rising, single point]"
CCOC(=O)c1ccc(-n2c(O)c(/C=N/NC(=O)C3COc4ccccc4O3)c3ccccc3c2=O)cc1 (centres undefined),AC50,[1],"14.1 µM [falling, partial curve]"
same,AC50,[2],"20 µM [falling, single point]"
COCCNS(=O)(=O)c1ccc(SC)cc1,AC50,[2],"7.94 µM [rising, partial curve, poor fit]"
S=C(NCCc1ccccn1)Nc1cccc(Cl)c1,AC50,[2],"35.5 µM [rising, single point]"
CCOc1ccccc1C1CC(=O)Nc2cc3c(cc21)OCO3 (centres undefined),AC50,[1],"0.794 µM [rising, full curve]"
same,AC50,[2],"6.31 µM [rising, full curve]"
NC(=O)CN1C(=O)C(O)(CC(=O)/C=C\C=C\c2ccccc2)c2ccccc21 (centres undefined),AC50,[2],"22.4 µM [rising, single point]"
COc1ccc(Cn2c(C3CC3)nc3ccc(NC(=O)c4ccco4)cc3c2=O)cc1,AC50,[2],"17.8 µM [rising, single point]"
Cc1ccc(C2(C(F)(F)F)N=C3Sc4cc(C)ccc4N3C(=O)N2)cc1 (centres undefined),AC50,[2],"35.5 µM [falling, single point]"
CC1N(C)c2cc(NC(=O)c3ccco3)ccc2C1(C)C (centres undefined),AC50,[1],"35.5 µM [rising, single point]"
same,AC50,[2],"35.5 µM [rising, single point]"
CNC(=S)Nc1ccc(C23CC4CC(CC(C4)C2)C3)cc1,AC50,[2],"14.1 µM [rising, single point]"
CCCCC(=O)NC(=S)Nc1nnn(CCC)n1,AC50,[1],"4.47 µM [rising, full curve, poor fit]"
O=C1C=C(c2cccs2)C[C@H](c2ccccc2)[C@H]1n1nnc([N+](=O)[O-])n1,AC50,[2],"35.5 µM [falling, single point]"
COc1cc(Nc2ccc(C(=O)O)cc2[N+](=O)[O-])cc(OC)c1,AC50,[1],"14.1 µM [rising, single point]"
same,AC50,[2],"17.8 µM [rising, single point]"
O=C(COc1ccc(F)cc1)NC1CC1,AC50,[2],"6.31 µM [falling, single point]"
CC(C)CCN1CCN(Cc2cn[nH]c2C2CCCCC2)CC1CCO (centres undefined),AC50,[2],"2.82 µM [falling, full curve, poor fit]"
Cc1noc(C)c1-c1ccc2ncnc(NCc3cccs3)c2c1,AC50,[1],"1.58 µM [falling, full curve]"
same,AC50,[2],"12.6 µM [falling, partial curve]"
Cc1ccc(NC(C)C(=O)N/N=C/c2ccc([N+](=O)[O-])s2)cc1 (centres undefined),AC50,[2],"35.5 µM [rising, single point]"
Cc1ccccc1NCC(=O)N/N=C/c1ccc([N+](=O)[O-])cc1,AC50,[1],"0.0891 µM [rising, full curve, poor fit]"
CCOC(=O)c1c(NC(=O)CSc2ncn[nH]2)sc(C)c1C,AC50,[2],"7.94 µM [rising, partial curve, poor fit]"
CCN(CC)CCN(C(=O)c1ccco1)c1nc2ccc(F)cc2s1,AC50,[2],"0.0158 µM [falling, full curve, poor fit]"
CCOc1ccc(-c2cc(C(=O)O)c3ccccc3n2)cc1,AC50,[2],"31.6 µM [rising, single point]"
O=c1c2c(ncn2C2CCCC2)n(Cc2ccccc2)c(=O)n1CCOc1ccccc1,AC50,[1],"35.5 µM [rising, single point]"
same,AC50,[2],"35.5 µM [rising, single point]"
C[C@@]12CCC(=O)C[C@@H]1CC(=O)[C@H]1[C@H]3CCC[C@]3(C)C(=O)C[C@@H]12 (tested in a mixture with another compound),AC50,[1],"1.12 µM [falling, single point]"
O=C(C1=C(c2ccccc2)C(=O)c2ccccc2C1=O)c1ccccc1,AC50,[1],"0.794 µM [falling, full curve]"
same,AC50,[2],"8.91 µM [falling, partial curve]"
O=C(Nc1ccccc1-c1nnn(CC(=O)N2CCc3ccccc3C2)n1)C1CCC1,AC50,[1],"12.6 µM [rising, single point]"
same,AC50,[2],"35.5 µM [rising, single point]"
